From the supplement of paper PMC10849652
The list shows a part of the results.

Protein sequences, listed by entry. Tags and fused reporters are not part of them. Lines headed by an entry give the natural chain unless they say otherwise; changes in a name come on top.
UniProt O94992, whole entry, looked up: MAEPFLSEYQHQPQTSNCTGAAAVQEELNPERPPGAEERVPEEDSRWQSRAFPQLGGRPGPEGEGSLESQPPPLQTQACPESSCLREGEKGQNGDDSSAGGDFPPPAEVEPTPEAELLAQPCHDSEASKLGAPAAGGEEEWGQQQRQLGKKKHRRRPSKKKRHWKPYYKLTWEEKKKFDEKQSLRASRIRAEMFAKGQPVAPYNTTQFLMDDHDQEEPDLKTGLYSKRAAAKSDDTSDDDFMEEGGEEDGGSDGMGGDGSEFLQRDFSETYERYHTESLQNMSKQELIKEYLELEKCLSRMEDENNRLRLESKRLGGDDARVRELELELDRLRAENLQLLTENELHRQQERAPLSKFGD
UniProt P52657, whole entry, looked up: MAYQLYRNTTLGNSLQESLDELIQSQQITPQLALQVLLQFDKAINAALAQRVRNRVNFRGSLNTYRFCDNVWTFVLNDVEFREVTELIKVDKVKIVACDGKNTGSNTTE
UniProt Q96CS2: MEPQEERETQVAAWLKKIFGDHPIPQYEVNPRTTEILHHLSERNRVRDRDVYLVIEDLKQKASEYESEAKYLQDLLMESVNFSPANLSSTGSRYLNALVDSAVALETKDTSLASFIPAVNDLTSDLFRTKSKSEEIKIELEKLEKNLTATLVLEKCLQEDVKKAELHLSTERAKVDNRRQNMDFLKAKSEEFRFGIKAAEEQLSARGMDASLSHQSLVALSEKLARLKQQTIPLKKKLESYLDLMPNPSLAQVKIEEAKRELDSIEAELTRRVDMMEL
UniProt Q9Y5Q8: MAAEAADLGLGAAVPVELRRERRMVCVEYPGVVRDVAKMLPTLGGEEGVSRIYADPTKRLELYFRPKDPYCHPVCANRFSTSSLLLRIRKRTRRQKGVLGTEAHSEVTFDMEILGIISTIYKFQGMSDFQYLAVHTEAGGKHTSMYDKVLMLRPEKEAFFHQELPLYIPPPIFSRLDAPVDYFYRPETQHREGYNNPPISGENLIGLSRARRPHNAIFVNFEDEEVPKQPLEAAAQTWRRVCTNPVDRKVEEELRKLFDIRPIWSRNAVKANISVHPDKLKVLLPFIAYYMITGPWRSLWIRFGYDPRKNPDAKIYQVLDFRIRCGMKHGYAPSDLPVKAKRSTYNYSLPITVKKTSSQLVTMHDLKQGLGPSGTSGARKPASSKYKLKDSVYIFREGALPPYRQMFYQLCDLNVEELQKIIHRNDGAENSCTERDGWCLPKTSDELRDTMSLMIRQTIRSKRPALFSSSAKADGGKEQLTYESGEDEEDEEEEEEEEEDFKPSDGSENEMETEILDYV
UniProt Q8NEC7: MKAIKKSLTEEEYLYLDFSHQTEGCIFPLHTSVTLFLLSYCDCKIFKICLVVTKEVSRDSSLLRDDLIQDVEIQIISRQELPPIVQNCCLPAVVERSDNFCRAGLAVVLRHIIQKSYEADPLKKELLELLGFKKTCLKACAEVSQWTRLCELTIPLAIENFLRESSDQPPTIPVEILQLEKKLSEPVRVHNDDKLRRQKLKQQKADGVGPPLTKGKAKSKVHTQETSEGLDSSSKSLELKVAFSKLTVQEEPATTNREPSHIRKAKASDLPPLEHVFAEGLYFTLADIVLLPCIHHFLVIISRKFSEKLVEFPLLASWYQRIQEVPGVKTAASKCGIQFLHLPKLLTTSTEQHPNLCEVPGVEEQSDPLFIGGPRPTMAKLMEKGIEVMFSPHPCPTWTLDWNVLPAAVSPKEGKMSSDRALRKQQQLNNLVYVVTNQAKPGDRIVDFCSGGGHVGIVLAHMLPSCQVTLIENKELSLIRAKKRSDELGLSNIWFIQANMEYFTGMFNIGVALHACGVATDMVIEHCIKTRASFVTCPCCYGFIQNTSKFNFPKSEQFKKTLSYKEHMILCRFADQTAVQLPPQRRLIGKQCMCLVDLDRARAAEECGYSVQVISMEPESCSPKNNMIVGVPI
UniProt A4D1E9: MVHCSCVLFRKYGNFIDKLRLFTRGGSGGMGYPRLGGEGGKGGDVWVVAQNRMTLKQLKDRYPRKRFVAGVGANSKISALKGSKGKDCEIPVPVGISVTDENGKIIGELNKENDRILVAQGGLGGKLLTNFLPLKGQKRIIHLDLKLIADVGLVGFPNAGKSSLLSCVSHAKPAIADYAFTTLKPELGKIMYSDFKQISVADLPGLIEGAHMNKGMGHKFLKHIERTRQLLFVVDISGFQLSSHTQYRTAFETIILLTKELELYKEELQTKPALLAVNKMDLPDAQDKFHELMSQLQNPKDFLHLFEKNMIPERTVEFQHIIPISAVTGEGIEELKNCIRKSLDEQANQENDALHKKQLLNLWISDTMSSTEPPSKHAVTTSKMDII
UniProt O00165, whole entry, looked up: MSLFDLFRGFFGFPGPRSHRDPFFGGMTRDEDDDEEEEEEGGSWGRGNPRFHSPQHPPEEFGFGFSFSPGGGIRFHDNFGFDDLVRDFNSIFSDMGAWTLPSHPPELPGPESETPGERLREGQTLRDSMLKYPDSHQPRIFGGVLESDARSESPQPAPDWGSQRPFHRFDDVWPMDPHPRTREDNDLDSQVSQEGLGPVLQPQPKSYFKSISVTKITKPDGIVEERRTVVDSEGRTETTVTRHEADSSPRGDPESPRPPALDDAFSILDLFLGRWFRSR
UniProt P78347: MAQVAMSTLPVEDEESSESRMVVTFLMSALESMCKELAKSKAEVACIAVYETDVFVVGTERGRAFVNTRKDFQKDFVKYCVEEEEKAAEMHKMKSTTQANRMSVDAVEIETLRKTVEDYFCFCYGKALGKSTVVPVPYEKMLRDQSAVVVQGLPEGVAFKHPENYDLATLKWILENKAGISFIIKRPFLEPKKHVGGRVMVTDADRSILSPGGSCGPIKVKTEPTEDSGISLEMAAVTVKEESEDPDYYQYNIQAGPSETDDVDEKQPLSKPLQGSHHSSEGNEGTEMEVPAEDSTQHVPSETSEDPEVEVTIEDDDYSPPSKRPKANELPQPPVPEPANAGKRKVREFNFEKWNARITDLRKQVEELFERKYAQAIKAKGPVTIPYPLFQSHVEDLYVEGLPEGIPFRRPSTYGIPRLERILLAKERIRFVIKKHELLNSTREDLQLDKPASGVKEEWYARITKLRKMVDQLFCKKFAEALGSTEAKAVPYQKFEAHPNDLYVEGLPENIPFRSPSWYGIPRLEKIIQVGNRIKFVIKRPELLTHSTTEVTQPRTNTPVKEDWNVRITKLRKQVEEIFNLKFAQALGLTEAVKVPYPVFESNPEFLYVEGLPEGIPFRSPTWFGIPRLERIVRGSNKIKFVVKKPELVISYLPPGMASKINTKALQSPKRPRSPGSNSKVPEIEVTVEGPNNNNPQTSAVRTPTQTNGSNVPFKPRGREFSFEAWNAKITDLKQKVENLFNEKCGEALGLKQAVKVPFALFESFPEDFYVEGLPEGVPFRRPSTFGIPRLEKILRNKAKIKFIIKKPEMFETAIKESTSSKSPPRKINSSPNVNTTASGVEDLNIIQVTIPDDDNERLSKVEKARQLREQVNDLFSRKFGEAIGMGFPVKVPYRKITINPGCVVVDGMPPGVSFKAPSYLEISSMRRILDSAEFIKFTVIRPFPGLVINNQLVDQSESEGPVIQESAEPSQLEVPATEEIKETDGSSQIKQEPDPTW
UniProt Q9UBN7: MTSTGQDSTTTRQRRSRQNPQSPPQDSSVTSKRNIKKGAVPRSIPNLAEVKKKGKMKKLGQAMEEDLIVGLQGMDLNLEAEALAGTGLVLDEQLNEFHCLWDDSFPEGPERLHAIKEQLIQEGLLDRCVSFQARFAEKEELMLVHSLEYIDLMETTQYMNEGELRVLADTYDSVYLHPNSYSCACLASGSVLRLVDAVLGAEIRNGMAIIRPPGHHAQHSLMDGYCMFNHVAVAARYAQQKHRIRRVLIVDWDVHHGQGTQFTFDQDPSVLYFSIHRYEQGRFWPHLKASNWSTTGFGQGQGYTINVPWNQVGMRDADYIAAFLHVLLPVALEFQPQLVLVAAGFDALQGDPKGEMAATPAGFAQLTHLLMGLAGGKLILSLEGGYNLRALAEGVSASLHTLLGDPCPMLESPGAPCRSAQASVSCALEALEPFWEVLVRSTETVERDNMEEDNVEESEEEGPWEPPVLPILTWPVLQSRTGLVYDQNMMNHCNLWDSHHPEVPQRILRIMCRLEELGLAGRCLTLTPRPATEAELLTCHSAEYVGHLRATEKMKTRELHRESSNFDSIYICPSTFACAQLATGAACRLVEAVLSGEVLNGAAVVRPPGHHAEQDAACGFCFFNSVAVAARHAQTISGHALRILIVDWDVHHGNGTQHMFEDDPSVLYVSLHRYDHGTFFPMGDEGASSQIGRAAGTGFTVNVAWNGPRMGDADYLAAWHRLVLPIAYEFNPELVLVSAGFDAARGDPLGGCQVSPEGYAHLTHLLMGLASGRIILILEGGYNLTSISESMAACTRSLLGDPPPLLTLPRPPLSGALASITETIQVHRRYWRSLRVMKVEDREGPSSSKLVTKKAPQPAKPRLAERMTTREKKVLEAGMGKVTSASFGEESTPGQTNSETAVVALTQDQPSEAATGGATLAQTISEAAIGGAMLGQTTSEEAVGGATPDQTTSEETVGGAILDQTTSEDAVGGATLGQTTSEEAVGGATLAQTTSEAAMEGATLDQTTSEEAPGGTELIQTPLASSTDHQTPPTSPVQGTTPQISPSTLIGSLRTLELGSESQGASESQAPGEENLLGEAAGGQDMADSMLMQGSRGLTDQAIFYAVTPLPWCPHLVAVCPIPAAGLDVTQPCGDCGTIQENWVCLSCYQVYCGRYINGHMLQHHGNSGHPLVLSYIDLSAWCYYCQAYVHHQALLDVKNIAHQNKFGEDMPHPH
UniProt Q9BXL5: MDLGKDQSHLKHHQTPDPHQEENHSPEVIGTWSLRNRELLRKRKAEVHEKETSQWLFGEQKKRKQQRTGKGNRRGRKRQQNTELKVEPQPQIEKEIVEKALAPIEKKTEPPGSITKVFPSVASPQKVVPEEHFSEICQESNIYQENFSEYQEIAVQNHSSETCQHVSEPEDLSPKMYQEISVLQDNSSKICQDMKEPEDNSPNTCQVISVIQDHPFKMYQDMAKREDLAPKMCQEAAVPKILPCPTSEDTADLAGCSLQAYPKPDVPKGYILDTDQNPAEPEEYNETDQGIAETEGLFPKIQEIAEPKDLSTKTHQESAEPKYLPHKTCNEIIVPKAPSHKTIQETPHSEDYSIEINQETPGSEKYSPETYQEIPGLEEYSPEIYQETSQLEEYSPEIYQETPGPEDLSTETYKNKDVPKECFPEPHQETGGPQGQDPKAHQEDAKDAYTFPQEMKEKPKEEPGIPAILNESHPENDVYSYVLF
UniProt P13984, whole entry, looked up: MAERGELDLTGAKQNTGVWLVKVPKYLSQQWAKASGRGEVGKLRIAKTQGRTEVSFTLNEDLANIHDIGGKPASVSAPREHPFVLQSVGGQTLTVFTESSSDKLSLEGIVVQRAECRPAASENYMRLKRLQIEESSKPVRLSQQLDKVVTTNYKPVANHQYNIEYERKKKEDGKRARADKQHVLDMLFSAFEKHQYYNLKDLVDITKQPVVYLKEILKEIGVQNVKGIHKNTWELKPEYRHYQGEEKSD
UniProt Q9H6D7: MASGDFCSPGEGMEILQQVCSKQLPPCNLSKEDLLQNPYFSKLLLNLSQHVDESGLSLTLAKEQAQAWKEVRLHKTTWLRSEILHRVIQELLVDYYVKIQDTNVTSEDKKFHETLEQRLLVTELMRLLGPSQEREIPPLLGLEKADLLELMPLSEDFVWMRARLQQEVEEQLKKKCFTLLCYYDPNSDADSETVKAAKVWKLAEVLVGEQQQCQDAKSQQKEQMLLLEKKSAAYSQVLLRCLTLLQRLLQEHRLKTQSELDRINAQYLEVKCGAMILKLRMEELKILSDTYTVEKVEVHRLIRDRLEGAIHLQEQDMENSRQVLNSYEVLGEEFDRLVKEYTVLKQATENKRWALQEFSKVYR
UniProt Q9Y5Z4: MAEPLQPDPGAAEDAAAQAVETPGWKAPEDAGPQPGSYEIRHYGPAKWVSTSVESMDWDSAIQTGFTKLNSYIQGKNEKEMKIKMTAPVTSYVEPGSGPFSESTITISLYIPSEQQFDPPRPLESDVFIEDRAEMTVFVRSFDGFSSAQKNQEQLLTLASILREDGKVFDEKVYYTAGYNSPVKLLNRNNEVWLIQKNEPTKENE
UniProt P55084: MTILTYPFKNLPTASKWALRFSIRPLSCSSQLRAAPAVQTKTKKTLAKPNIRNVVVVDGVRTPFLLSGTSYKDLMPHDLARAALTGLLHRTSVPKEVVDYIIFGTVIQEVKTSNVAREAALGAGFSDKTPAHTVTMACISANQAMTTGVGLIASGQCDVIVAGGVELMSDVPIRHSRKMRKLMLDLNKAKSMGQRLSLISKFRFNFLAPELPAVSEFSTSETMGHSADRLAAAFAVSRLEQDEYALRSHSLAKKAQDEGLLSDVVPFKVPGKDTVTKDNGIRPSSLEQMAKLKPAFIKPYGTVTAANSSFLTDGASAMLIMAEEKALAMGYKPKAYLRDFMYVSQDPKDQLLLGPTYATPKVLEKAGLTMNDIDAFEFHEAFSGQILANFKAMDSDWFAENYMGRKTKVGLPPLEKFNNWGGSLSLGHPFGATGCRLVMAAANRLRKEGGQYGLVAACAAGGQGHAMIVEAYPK

Columns and labels:
Experiment in all cases: log2 fold change, soluble protein after heating vs DMSO (PISA); higher = thermal stabilisation; K562 cells, 10 uM, 30 min; active = over 0.2 and 3.5 SD of the protein, either way, in both replicates (recomputed)
erlotinib = compound: C#Cc1cccc(Nc2ncnc3cc(OCCOC)c(OCCOC)cc23)c1 [erlotinib]
In short: (§1)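 K562 cells at 2×10^6 cells/mL were given 10 μM compound for 30 min. Aliquots then went through 3 min of heating across 48°C-58°C, were pooled, and were extracted in PBS with 0.5% NP-40 at 4°C, and the supernatant after 21,000xg for 90 min was quantified by TMTpro 16plex LC-MS/MS with channel sums equalised. Thermal stability relative to control samples, from duplicates, is given as log2 fold change.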

[1] = compound: C/C(=N\NC(=O)C1=CC(=CC=C1)S(=O)(=O)N2CCOCC2)/C3=C(C=CC(=C3)Cl)O
In short: as §1

[2] = compound: C1=CC(=C(C=C1Cl)C2=NC3=NC=CN=C3C(=N2)NC4=CC=NC=C4)F
In short: as §1

[3] = compound: C1=CC(=CC=C1C2=NC3=C(N2)C=C(C=C3)C(=O)N)OC4=CC=C(C=C4)Cl
In short: as §1

[4] = compound: C1=CC2=C(C=CC(=C2)/C=C\3/C(=O)NC(=NCC4=CC=CS4)S3)N=C1
In short: as §1

[5] = compound: C1=CC2=NC=CN=C2C=C1/C=C/3\C(=O)NC(=O)S3
In short: as §1

[6] = compound: C1=CC=C(C=C1)C2=NC(=C(N2)C3=CC=NC=C3)C4=CC(=C(C=C4)Cl)O
In short: as §1

[7] = compound: C1=CC=C2C(=C1)C3=NNC4=CC=CC(=C43)C2=O
In short: as §1

[8] = compound: C1CCN(C1)C(=O)NC2=CC=CC(=C2)NC3=NC=C(C(=N3)NCCC4=CN=CN4)Br
In short: as §1

[9] = compound: C1CN(CCC1(CC2=CC=C(C=C2)Cl)N)C3=NC=NC4=C3C=CN4
In short: as §1

Measured: log2 fold change

HEXIM1 (UniProt O94992)
inactive: erlotinib 0.051 | [1] -0.034 | [2] -0.071 | [3] 0.007 | [4] 0.04 | [5] 0.011 | [6] -0.109 | [7] 0.005 | [8] -0.005 | [9] -0.048

H4C1 (UniProt P62805)
inactive: erlotinib 0.093 | [1] -0.108 | [2] -0.384 | [3] -0.019 | [4] 0.02 | [5] 0.209 | [6] -0.056 | [7] -0.02 | [8] 0.334 | [9] -0.407

GTF2A2 (UniProt P52657)
inactive: erlotinib -0.057 | [1] 0.048 | [2] 0.089 | [3] -0.005 | [4] 0.132 | [5] 0.038 | [6] -0.002 | [7] -0.02 | [8] 0.008 | [9] 0.07

HAUS1 (UniProt Q96CS2)
inactive: erlotinib -0.01 | [1] 0.067 | [2] -0.047 | [3] -0.01 | [4] -0.107 | [5] 0.068 | [6] 0.068 | [7] -0.075 | [8] -0.089 | [9] -0.084

GYG1 (UniProt P46976)
inactive: erlotinib -0.064 | [1] 0.016 | [2] -0.23 | [3] 0.005 | [4] 0.089 | [5] -0.039 | [6] -0.109 | [7] 0.083 | [8] -0.075 | [9] -0.027

GTF3C5 isoform 3 (UniProt Q9Y5Q8)
active: [4] -0.413
inactive: erlotinib 0.085 | [1] 0.293 | [2] -0.078 | [3] -0.049 | [5] -0.056 | [6] -0.089 | [7] 0.079 | [8] -0.067 | [9] -0.038

Pulled one by one from the entries so far, two records:
GYG1 (UniProt P46976)
inactive: erlotinib -0.064 | [1] 0.016 | [2] -0.23 | [3] 0.005 | [4] 0.089 | [5] -0.039 | [6] -0.109 | [7] 0.083 | [8] -0.075 | [9] -0.027

GTF3C5 isoform 3 (UniProt Q9Y5Q8)
active: [4] -0.413
inactive: erlotinib 0.085 | [1] 0.293 | [2] -0.078 | [3] -0.049 | [5] -0.056 | [6] -0.089 | [7] 0.079 | [8] -0.067 | [9] -0.038

Next entries.

HECTD3 (UniProt Q5T447)
inactive: erlotinib 0.197 | [1] -0.065 | [2] -0.116 | [3] 0.061 | [4] 0.028 | [5] -0.035 | [6] -0.015 | [7] -0.065 | [8] 0.007 | [9] 0.019

GSTCD (UniProt Q8NEC7)
inactive: erlotinib 0.039 | [1] 0.094 | [2] 0.013 | [3] -0.033 | [4] 0.086 | [5] 0.017 | [6] -0.041 | [7] -0.028 | [8] -0.056 | [9] -0.018

GTPBP10 (UniProt A4D1E9)
inactive: erlotinib 0.077 | [1] 0.016 | [2] 0.084 | [3] -0.018 | [4] 0.08 | [5] 0.027 | [6] -0.018 | [7] 0.078 | [8] -0.112 | [9] -0.097

GSK3B isoform 2 (UniProt P49841)
inactive: erlotinib -0.024 | [1] -0.051 | [2] 0.007 | [3] 0.027 | [4] 0.038 | [5] -0.013 | [6] 0.095 | [7] 0.091 | [8] 0.042 | [9] 0.159

HAX1 (UniProt O00165)
inactive: erlotinib 0.07 | [1] -0.006 | [2] -0.024 | [3] -0.014 | [4] 0.087 | [5] 0.008 | [6] 0.06 | [7] 0.156 | [8] 0.027 | [9] -0.078

GTF2I (UniProt P78347)
inactive: erlotinib 0.038 | [1] 0.03 | [2] -0.107 | [3] -0.021 | [4] -0.045 | [5] 0.017 | [6] 0.009 | [7] -0.088 | [8] -0.09 | [9] 0.121

HBG2 (UniProt P69892)
inactive: erlotinib -0.042 | [1] 0.088 | [2] 0.198 | [3] 0.045 | [4] 0.014 | [5] -0.062 | [6] 0.13 | [7] 0.053 | [8] -0.055 | [9] 0.053

HEXB (UniProt P07686)
inactive: erlotinib -0.004 | [1] 0.002 | [2] 0.01 | [3] 0.003 | [4] -0.002 | [5] 0.017 | [6] 0.017 | [7] -0.01 | [8] 0.008 | [9] 0.026

HECTD1 (UniProt Q9ULT8)
inactive: erlotinib 0.009 | [1] 0.127 | [2] -0.031 | [3] -0.003 | [4] 0.025 | [5] 0.087 | [6] -0.038 | [7] -0.035 | [8] -0.076 | [9] -0.204

HDAC6 (UniProt Q9UBN7)
inactive: [1] 0.033 | [2] -0.007 | [3] -0.007 | [4] 0.041 | [5] -0.164 | [6] 0.033 | [7] 0.07 | [8] -0.043 | [9] 0.115
active: erlotinib 0.43

HADHA (UniProt P40939)
inactive: erlotinib -0.085 | [1] 0.122 | [2] 0.044 | [3] -0.18 | [4] 0.042 | [5] 0.02 | [6] 0.07 | [7] 0.271 | [8] -0.214 | [9] 0.171

HEMGN (UniProt Q9BXL5)
inactive: erlotinib -0.043 | [1] -0.004 | [2] -0.035 | [3] 0.013 | [4] 0.05 | [5] 0.008 | [6] -0.026 | [7] -0.001 | [8] -0.003 | [9] -0.009

HDHD5 (UniProt Q9BXW7)
inactive: erlotinib 0.059 | [1] 0.055 | [2] -0.065 | [3] 0.026 | [4] 0.096 | [5] -0.035 | [6] 0.008 | [7] 0.04 | [8] -0.028 | [9] -0.004

GTF2E2 (UniProt P29084)
inactive: erlotinib 0.028 | [1] 0.137 | [2] 0.048 | [3] -0.001 | [4] 0.09 | [5] 0.003 | [6] -0.002 | [7] 0.03 | [8] -0.03 | [9] -0.13

HDGF (UniProt P51858)
inactive: erlotinib 0.007 | [1] -0.023 | [2] 0.032 | [3] -0.036 | [4] -0.016 | [5] -0.001 | [6] -0.054 | [7] -0.033 | [8] 0.019 | [9] 0.016

HERC1 (UniProt Q15751)
inactive: erlotinib -0.018 | [1] 0.025 | [2] -0.005 | [3] 0.04 | [4] -0.024 | [5] 0.006 | [6] 0.026 | [7] 0.026 | [8] -0.024 | [9] -0.042

GTF2F2 (UniProt P13984)
inactive: erlotinib 0.036 | [1] 0.027 | [2] 0.019 | [3] -0.02 | [4] 0.026 | [5] 0.006 | [6] -0.028 | [7] 0.005 | [8] 0.009 | [9] 0.003

HARS2 (UniProt P49590)
inactive: erlotinib -0.053 | [1] -0.004 | [2] 0.03 | [3] 0.014 | [4] 0.003 | [5] 0.007 | [6] 0.013 | [7] -0.037 | [8] -0.015 | [9] -0.037

HAUS4 (UniProt Q9H6D7)
inactive: erlotinib -0.112 | [1] 0.097 | [2] 0.041 | [3] -0.095 | [4] 0.018 | [5] -0.065 | [6] -0.085 | [7] -0.087 | [8] -0.001 | [9] 0.001

GSTZ1 (UniProt G3V4T6)
inactive: erlotinib 0.01 | [1] 0.028 | [2] 0.07 | [3] 0.09 | [4] 0.029 | [5] -0.033 | [6] 0.003 | [7] 0.023 | [8] -0.002 | [9] 0.057

GSPT1 isoform 3 (UniProt P15170)
inactive: erlotinib -0.016 | [1] 0.011 | [2] 0.056 | [3] 0.006 | [4] 0.048 | [5] -0.013 | [6] 0.024 | [7] 0.003 | [8] 0.015 | [9] 0.024

HEBP2 (UniProt Q9Y5Z4)
inactive: erlotinib 0.012 | [1] 0.004 | [2] 0.042 | [3] -0.014 | [4] -0.035 | [5] 0.026 | [6] -0.023 | [7] 0.003 | [8] 0.007 | [9] 0.011

HADHB (UniProt P55084)
inactive: erlotinib -0.057 | [1] 0.112 | [2] 0.035 | [3] -0.184 | [4] 0.063 | [5] 0.024 | [6] 0.04 | [7] 0.259 | [8] -0.206 | [9] 0.158

GUK1 isoform 2 (UniProt Q16774)
inactive: erlotinib 0.009 | [1] 0.289 | [2] 0.092 | [3] 0 | [4] 0.004 | [5] 0 | [6] -0.02 | [7] 0.021 | [8] -0.03 | [9] 0.066
